These are yes or no findings as the source states them, for the method shown. Binding seen in cells or lysates may run through a third protein. A result given as binding can be weak or reduced; the word gives no strength.
Key:
Assay in all cases: co-IP; lysates of transfected cells (HEK293) with ectopically expressed HA-USP11 and Myc-SFTPC constructs, precipitated with HA or Myc antibody at 4 °C overnight, protein A/G agarose, western blot
Myc-SFTPC^I73T (human) = Myc-SFTPC^I73T (human) (UniProt P11686)
Myc-SFTPC (human) = Myc-SFTPC (human) (UniProt P11686)
HA-USP11 = HA-USP11 (UniProt P51784)

Amino acid sequences for entries named in this document (tags omitted). A change or cut given only in a name is not applied to a line headed by its entry.
UniProt P11686: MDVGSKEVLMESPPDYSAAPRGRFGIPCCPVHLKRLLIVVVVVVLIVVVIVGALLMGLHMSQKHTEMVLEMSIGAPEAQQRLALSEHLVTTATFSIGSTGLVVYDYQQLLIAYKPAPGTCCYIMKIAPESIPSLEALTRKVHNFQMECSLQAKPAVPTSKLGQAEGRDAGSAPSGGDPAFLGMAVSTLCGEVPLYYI
UniProt P51784: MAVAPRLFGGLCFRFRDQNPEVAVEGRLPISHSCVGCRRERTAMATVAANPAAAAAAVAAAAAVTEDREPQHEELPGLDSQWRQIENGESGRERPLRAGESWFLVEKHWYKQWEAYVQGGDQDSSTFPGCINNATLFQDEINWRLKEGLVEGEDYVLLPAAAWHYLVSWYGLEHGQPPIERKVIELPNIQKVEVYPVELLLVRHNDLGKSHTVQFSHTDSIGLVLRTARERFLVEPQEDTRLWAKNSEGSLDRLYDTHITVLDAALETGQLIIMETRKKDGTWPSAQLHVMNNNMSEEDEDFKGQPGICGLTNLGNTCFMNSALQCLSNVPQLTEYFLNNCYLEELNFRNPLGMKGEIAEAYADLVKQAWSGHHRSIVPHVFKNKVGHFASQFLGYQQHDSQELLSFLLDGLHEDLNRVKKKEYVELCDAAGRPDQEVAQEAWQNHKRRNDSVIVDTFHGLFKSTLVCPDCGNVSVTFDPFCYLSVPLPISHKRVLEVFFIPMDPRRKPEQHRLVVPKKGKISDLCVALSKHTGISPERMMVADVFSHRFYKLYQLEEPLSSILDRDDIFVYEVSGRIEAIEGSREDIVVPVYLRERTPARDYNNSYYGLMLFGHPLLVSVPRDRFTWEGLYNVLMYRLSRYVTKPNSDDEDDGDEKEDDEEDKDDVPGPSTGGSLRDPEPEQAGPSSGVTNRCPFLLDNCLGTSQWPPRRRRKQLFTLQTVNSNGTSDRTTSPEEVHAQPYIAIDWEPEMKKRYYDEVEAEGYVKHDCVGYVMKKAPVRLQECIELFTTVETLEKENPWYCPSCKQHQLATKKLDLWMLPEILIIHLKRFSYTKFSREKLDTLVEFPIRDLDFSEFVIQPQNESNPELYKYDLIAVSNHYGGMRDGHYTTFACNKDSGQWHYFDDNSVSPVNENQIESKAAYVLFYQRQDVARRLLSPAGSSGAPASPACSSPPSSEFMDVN

With “HA-USP11 (from UniProt P51784 1-963) (enzyme)” the binding (Myc-SFTPC^I73T (human)) was “binds” and the binding (Myc-SFTPC (human)) was “binds”.

Myc-SFTPC (from UniProt P11686) was tested, and the binding (HA-USP11) was “binds”.

— PMC11984411
